Data taken from paper doi:10.1101/2021.08.16.456468.
The exact form of at least one protein or probe is not confirmed. A negative result means that nothing was seen under these conditions.

By UniProt entry, the sequences of proteins in these tests, tags left out. Where a name states a change or a piece, a line headed by the entry shows the natural chain unless it says otherwise.
UniProt P39787: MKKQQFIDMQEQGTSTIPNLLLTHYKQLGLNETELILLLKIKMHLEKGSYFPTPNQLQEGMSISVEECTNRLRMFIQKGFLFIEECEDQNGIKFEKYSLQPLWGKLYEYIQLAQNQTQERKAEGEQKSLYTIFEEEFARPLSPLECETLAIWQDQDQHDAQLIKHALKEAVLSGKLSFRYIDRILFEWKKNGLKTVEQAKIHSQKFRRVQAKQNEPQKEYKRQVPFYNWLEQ

Molecular target: DnaD7A (Bacillus subtilis) (UniProt P39787)
Assay: fluorescence polarization

TTTTTTTTTTTTTTTTTTTTTTTTTTTTTTTTTTTTTTTT [dT40]
binding result: no binding
